Test results published in article PMC7865483.
These are yes or no findings as the source states them, for the method shown. Binding seen in cells or lysates may run through a third protein. Some results given as binding are weak or reduced against the parent protein; the word gives no strength.

Chains of the proteins cited; added tags and fusions are not shown.
UniProt Q8TE04: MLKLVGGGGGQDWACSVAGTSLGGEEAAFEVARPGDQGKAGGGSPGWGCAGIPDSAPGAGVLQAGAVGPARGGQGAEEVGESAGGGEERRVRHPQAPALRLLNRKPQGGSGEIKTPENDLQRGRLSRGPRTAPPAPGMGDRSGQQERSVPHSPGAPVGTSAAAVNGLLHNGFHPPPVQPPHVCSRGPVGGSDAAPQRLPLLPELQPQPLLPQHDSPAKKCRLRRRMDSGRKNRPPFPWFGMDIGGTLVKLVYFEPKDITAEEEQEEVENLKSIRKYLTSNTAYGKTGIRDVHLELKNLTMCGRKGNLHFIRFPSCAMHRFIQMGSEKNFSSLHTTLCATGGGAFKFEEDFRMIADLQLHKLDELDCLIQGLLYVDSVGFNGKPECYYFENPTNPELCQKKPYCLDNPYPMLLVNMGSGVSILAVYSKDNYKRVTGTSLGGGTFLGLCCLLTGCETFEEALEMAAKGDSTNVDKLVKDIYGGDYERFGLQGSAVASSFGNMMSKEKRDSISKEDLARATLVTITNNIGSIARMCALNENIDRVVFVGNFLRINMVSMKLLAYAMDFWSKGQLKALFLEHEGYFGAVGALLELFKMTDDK

How the values were obtained:
[1] = target: Pank1 (pantothenate kinase 1), endogenous in A549 cells (human (endogenous in A549)) (UniProt Q8TE04); test: condition: only serum-starved cells treated with 1 μM insulin or 100 ng/mL FGF-2 for 6 h; proximity ligation; in situ PLA (Duolink) on fixed A549 cells, endogenous proteins; cells serum-starved for 24 h, then treated with 1 μM insulin or 100 ng/mL FGF-2 for 6 h
[2] = target: Pank1 (pantothenate kinase 1), endogenous in A549 cells (human (endogenous in A549)) (UniProt Q8TE04); test: condition: only exponentially growing cells in full medium, without serum starvation or H2O2; proximity ligation; in situ PLA (Duolink) on fixed A549 cells, endogenous proteins; control cells growing exponentially in full medium, not starved or treated
[3] = target: Pank1 (pantothenate kinase 1), endogenous in A549 cells (human (endogenous in A549)) (UniProt Q8TE04); test: proximity ligation; in situ PLA (Duolink) on fixed A549 cells, endogenous proteins; cells serum-starved for 24 h, or serum-starved and then treated with 500 μM H2O2

binding [1]: no binding | binding [2]: no binding | binding [3]: binds
B1: CoA synthase (CoAsy) (enzyme, UniProt Q13057 1-564)
chain: MAVFRSGLLVLTTPLASLAPRLASILTSAARLVNHTLYVHLQPGMSLEGPAQPQSSPVQATFEVLDFITHLYAGADVHRHLDVRILLTNIRTKSTFLPPLPTSVQNLAHPPEVVLTDFQTLDGSQYNPVKQQLVRYATSCYSCCPRLASVLLYSDYGIGEVPVEPLDVPLPSTIRPASPVAGSPKQPVRGYYRGAVGGTFDRLHNAHKVLLSVACILAQEQLVVGVADKDLLKSKLLPELLQPYTERVEHLSEFLVDIKPSLTFDVIPLLDPYGPAGSDPSLEFLVVSEETYRGGMAINRFRLENDLEELALYQIQLLKDLRHTENEEDKVSSSSFRQRMLGNLLRPPYERPELPTCLYVIGLTGISGSGKSSIAQRLKGLGAFVIDSDHLGHRAYAPGGPAYQPVVEAFGTDILHKDGIINRKVLGSRVFGNKKQLKILTDIMWPIIAKLAREEMDRAVAEGKRVCVIDAAVLLEAGWQNLVHEVWTAVIPETEAVRRIVERDGLSEAAAQSRLQSQMSGQQLVEQSHVVLSTLWEPHITQRQVEKAWALLQKRIPKTHQALD
